Among all 350,000 compounds or so, about 1,200 (0.34%) were called active. The shares of active, inactive and inconclusive entries below differ from those in the screen. Calls come from the whole dose curve; as a rule, active = well fitted inhibition curve with a large enough effect; inconclusive = small, poorly fitted or top-dose-only effect; inactive = no such curve, though single readings can be large or run the other way. Where the call is inconclusive, the potency comes from a doubtful curve fit.
Molecular target: DNA repair nuclease/redox regulator APEX1 (Homo sapiens) (UniProt P27695)
Test: qHTS Assay for Inhibitors of the Human Apurinic/apyrimidinic Endonuclease 1 (APE1); note: nearly all actives have a fitted effect of over 55% in size;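 for activity change, negative = inhibition: plate controls were vehicle for no effect and reference inhibitor for full effect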
Settings: recombinant APE1, TAMRA/BHQ-2 abasic DNA cleavage fluorescence; activity change, negative = inhibition: at 65.8 µM (top of the series)
In short: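 Step 1: APE1 (0.75 nM) with compound, 15 min RT. Step 2: add 50 nM fluorophore/quencher THF duplex. Step 3: three fluorescence reads 60 s apart (525/598 nm); read 3 minus read 1 = reaction progress.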
Potency is the fitted concentration of half-maximal effect.

Sequences of proteins named here, by UniProt entry; tags and fusion partners are left off.
UniProt P27695, whole entry, looked up: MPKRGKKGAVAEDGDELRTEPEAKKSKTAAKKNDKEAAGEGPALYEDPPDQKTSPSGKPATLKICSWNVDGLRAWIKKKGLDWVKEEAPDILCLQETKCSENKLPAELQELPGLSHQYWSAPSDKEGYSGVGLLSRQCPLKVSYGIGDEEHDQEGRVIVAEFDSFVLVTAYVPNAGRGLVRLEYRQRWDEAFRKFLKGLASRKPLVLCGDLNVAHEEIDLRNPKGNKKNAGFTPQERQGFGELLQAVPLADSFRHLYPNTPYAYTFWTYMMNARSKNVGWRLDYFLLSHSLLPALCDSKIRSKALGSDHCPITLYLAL

| Structure (SMILES) | Potency | activity change, negative = inhibition |
| --- | --- | --- |
| COc1ccc(S(=O)(=O)N2CCC(O)(c3ccc4c(c3)OCO4)CC2)cc1 | inconclusive: 7.08 µM [inhibitor, single point] | – |
| O=C(Nc1ccc(S(=O)(=O)Nc2nccs2)cc1)c1ccc(=O)[nH]c1 | inconclusive: 39.8 µM [inhibitor, single point] | – |
| O=c1cc(CN2CCC3(CC2)OCCO3)c2c(ccc3ccccc32)o1 | inconclusive: 0.794 µM [inhibitor, full curve] | – |
| O=C(NCCCN1CCCC1=O)c1cc(NS(=O)(=O)c2ccc(F)cc2)cc(NS(=O)(=O)c2ccc(F)cc2)c1 | inconclusive: 4.47 µM [inhibitor, single point] | – |
| CCOc1cc(/C=N/Nc2nn3cnnc3c3ccccc23)ccc1O | inconclusive: 28.2 µM [inhibitor, single point] | – |
| CC1CC(=O)Nc2ccccc2N1C(=O)Nc1ccc(F)cc1 (centres undefined) | inconclusive: 3.16 µM [inhibitor, single point] | – |
| O=C(/C=C/c1cn(-c2ccccc2)nc1-c1cccnc1)N1CCCC1 | inconclusive: 39.8 µM [inhibitor, single point] | – |
| Brc1ccc(C2Nc3cccc4cccc(c34)N2)o1 | inconclusive: 0.631 µM [inhibitor, full curve] | – |
| COc1ccc(CCNC(=O)CN(c2ccc(OC)cc2)S(C)(=O)=O)cc1 | inconclusive: 2.51 µM [inhibitor, partial curve, poor fit] | – |
| CCCSc1ccc2nc(-c3ccccc3)cn2c1 | inactive | – |
| CCn1c(CSc2nnc(-c3cccnc3)n2-c2ccccc2C)nc2cc(C(=O)O)ccc21 | inconclusive: 31.6 µM [inhibitor, single point] | – |
| C/C=C(/CC[C@@H](C)[C@H]1CC[C@H]2C3=CC[C@H]4[C@H](C)[C@@H](O)CC[C@]4(C)[C@H]3CC[C@]12C)C(C)C | inactive | – |
| O=C(/C=C/c1ccncc1)c1ccc(NC(=O)c2ccccc2F)cc1 | inconclusive: 39.8 µM [inhibitor, single point] | – |
| O=C(Nc1nc2ccccc2s1)C1CC(=O)N(c2ccc(Br)cc2)C1 (centres undefined) | inconclusive: 5.01 µM [inhibitor, single point] | – |
| O=C(Nc1nc(-c2ccccn2)cs1)C1CC(=O)N(c2ccc3c(c2)OCCO3)C1 (centres undefined) | inactive | – |
| c1ccc(Oc2ccc(-c3ccnc4nc(N5CCOCC5)nn34)cc2)cc1 | inconclusive: 10 µM [inhibitor, single point] | – |
| CC(=O)N1CCC2(CC1)CCN(c1ccncc1)CC2 | inconclusive: 44.7 µM [inhibitor, single point] | – |
| COc1ccc(-c2nc3c(c4c2C[C@H](c2ccccc2)OC4)CN(C(=O)NCCc2c[nH]c4ccccc24)CC3)c(C)c1 | – | inactive: 0.434% [at 12.4 µM] |
| CCN(CC)CCCC(C)n1c(-c2ccccc2)nc2c(NCc3ccccc3)nc(C)nc21 (centres undefined) | inconclusive: 25.1 µM [inhibitor, partial curve] | – |
| CCOC(=O)c1c(/N=C/c2ccc(C)cc2O)sc2c1CCC2 | inactive | – |

| Structure (SMILES) | Potency | activity change, negative = inhibition |
| --- | --- | --- |
| COc1ccc(/C(C)=N/NC(=O)CNC(=O)/C=C\c2ccco2)cc1 | inconclusive: 20 µM [inhibitor, single point] | – |
| Nc1ccc(N)c(Cl)c1 | inconclusive: 35.5 µM [inhibitor, partial curve] | – |
| Cc1cccc(C2=NN(c3ccccc3)[C@@H](C(=O)N3CCOC3=O)[C@@H]2C)c1 | inconclusive: 8.91 µM [inhibitor, partial curve] | – |
| CCCN1C(=S)SC(C)(C)C1/[N+]([O-])=C/c1cccnc1 (centres undefined) | inconclusive: 4.47 µM [inhibitor, single point] | – |
| COc1ccc2cc3cc(C(=O)NCc4ccco4)oc3nc2c1 | inconclusive: 35.5 µM [inhibitor, single point] | – |
| Cc1ccc(CNC(=O)CCS(=O)(=O)c2ccc(Br)cc2)cc1 | inconclusive: 8.91 µM [inhibitor, partial curve] | – |
| O=c1[nH][nH]cc1C=NCc1cccnc1 | inconclusive: 1.78 µM [inhibitor, partial curve] | – |
| COc1ccc(CC(=O)Nc2ccc(-c3cn4ccccc4n3)cc2)cc1OC | inconclusive: 0.631 µM [inhibitor, full curve] | – |
| COC(=O)C1=C(C)N(C2CCCCC2)C(=O)C1 | inconclusive: 6.31 µM [inhibitor, single point] | – |
| Cc1nn(-c2ccccc2)c2c1C(c1ccc([N+](=O)[O-])cc1)N1C(=N2)C(=O)Nc2ccccc21 (centres undefined) | inconclusive: 1.41 µM [inhibitor, full curve, poor fit] | – |
| Nc1nonc1C(=O)N/N=C/c1ccc(-c2cccc(C(=O)O)c2)o1 | inconclusive: 31.6 µM [inhibitor, single point] | – |
| C[C@H]1O[C@@H](O[C@H]2[C@@H](O)C[C@H](O[C@H]3[C@@H](O)C[C@H](O[C@H]4CC[C@@]5(C)[C@H](CC[C@@H]6[C@@H]5C[C@@H](O)[C@]5(C)[C@@H](C7=CC(=O)OC7)CC[C@]65O)C4)O[C@@H]3C)O[C@@H]2C)C[C@H](O)[C@@H]1O | inconclusive: 44.7 µM [inhibitor, single point] | – |
| CCOC(=O)c1oc2ccccc2c1CN1CCN(c2ccccc2)CC1 | inconclusive: 0.891 µM [inhibitor, partial curve, poor fit] | – |
| c1ccc(-c2nnc3sc(-c4ccncc4)nn23)cc1 | inconclusive: 1 µM [inhibitor, single point] | – |
| Cc1ccc(/C=N/NS(=O)(=O)c2ccc([N+](=O)[O-])cc2)o1 | inconclusive: 20 µM [inhibitor, single point] | – |
| Oc1c(CN2CCCCC2)cc(COCc2ccccc2)c2cccnc12 | inactive | – |
| O=c1c(Cc2ccc(Cl)cc2Cl)c(O)ccn1Cc1ccc(Cl)cc1 | inconclusive: 44.7 µM [inhibitor, single point] | – |
| CCSC1=N/C(=C\c2ccc(-c3ccccc3[N+](=O)[O-])o2)C(=O)S1 | inconclusive: 31.6 µM [inhibitor, single point] | – |
| O=[N+]([O-])c1cccc(S(=O)(=O)c2ccc(NCCO)c([N+](=O)[O-])c2)c1 | inconclusive: 22.4 µM [inhibitor, single point] | – |

Random excerpt: 2 records from the list

| Structure (SMILES) | Potency | activity change, negative = inhibition |
| --- | --- | --- |
| CCCN1C(=S)SC(C)(C)C1/[N+]([O-])=C/c1cccnc1 (centres undefined) | inconclusive: 4.47 µM [inhibitor, single point] | – |
| Cc1nn(-c2ccccc2)c2c1C(c1ccc([N+](=O)[O-])cc1)N1C(=N2)C(=O)Nc2ccccc21 (centres undefined) | inconclusive: 1.41 µM [inhibitor, full curve, poor fit] | – |

Reference: PubChem BioAssay AID2517 (National Center for Advancing Translational Sciences (NCATS), 2010)
